Protein sequences, listed by entry. Tags and fused reporters are not part of them. Lines headed by an entry give the natural chain unless they say otherwise; changes in a name come on top. Residues count along the entry.
UniProt P17301, residues 30-1181: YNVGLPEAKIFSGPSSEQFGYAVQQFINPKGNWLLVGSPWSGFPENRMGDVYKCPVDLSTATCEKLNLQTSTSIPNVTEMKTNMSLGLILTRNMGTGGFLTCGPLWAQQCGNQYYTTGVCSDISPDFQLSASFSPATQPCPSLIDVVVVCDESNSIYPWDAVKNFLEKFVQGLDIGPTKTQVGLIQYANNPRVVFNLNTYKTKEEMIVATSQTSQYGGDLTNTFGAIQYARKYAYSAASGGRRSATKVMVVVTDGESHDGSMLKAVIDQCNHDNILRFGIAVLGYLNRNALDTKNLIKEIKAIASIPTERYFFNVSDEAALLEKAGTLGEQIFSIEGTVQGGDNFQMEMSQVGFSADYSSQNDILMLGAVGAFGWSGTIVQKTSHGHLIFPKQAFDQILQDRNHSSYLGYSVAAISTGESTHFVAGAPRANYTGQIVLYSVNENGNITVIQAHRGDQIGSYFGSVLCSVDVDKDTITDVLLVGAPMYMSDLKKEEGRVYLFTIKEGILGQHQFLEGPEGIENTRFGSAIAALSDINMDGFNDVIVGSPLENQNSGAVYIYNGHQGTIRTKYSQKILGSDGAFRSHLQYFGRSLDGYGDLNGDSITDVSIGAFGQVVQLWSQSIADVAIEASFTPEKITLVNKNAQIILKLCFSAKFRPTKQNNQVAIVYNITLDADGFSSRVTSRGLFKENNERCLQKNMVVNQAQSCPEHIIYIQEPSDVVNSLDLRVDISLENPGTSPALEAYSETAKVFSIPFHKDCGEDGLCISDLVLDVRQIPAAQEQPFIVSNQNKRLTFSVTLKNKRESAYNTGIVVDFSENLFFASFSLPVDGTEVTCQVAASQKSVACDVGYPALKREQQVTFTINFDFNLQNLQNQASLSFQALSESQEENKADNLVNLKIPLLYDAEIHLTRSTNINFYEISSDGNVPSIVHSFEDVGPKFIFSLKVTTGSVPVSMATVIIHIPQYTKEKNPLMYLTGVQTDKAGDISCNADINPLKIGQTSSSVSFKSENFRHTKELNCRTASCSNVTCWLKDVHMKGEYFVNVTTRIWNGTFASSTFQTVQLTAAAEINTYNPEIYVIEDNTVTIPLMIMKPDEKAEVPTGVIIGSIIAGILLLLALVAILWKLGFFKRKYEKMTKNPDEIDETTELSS
UniProt P05556: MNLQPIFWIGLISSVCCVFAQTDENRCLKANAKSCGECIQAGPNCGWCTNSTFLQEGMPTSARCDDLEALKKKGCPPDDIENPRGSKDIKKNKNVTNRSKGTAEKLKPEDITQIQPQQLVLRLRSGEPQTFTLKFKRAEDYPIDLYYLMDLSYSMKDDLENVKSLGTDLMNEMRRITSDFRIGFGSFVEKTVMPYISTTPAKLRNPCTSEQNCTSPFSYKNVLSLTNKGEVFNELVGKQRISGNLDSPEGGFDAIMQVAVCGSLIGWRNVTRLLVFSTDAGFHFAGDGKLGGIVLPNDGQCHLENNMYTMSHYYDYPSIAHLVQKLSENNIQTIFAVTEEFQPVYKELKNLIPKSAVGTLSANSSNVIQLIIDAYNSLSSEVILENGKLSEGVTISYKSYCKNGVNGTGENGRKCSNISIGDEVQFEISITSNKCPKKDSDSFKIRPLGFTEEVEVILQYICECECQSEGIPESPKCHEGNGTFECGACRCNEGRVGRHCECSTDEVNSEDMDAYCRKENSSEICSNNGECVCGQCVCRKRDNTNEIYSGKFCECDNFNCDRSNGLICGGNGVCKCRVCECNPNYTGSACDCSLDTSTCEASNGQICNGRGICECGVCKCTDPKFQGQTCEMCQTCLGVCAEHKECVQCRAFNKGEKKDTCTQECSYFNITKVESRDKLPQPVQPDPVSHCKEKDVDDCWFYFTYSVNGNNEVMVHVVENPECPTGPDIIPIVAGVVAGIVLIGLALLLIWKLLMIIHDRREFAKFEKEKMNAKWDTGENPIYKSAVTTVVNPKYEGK

According to paper PMC9283456:

Molecular target: T1, V5-tagged TM4SF1 (Transmembrane-4 L-six family member-1) (human) (UniProt P30408)
T1 sequence: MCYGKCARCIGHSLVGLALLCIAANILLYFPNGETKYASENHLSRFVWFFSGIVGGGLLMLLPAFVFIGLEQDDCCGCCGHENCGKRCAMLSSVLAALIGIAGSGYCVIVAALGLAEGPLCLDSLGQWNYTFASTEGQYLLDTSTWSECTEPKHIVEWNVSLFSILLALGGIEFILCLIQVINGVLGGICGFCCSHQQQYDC
Test: affinity purification with mass spectrometry; V5-tagged TM4SF1 stably overexpressed in Eca109 cells on laminin-coated dishes; lysis in 0.1% Triton TBS (20 mM Tris-HCl pH 7.4, 150 mM NaCl); anti-V5-tag mAb-magnetic beads, 4 °C, 2 h; eluate resolved by SDS-PAGE and analysed by mass spectrometry

integrin α2 (from UniProt P17301 30-1181) (receptor)
binding: binds

integrin α6 (receptor)
binding: binds

integrin β1 (from UniProt P05556 21-798) (receptor)
binding: binds

These are yes or no findings as the source states them, for the method shown. In cells and extracts the contact can be indirect. Here binding means that the protein was enriched with, or labelled near, the bait; the list need not be complete. Tags and fused reporters may be left off the sequences shown.
